# Data taken from publication PMC11178545, “Alkynyl nicotinamides show antileukemic activity in drug-resistant acute myeloid leukemia” (The Journal of Clinical Investigation, 2024).
# Experiments:
# [1] = test system: BaF3 cells transduced with Flt3ITD/ITD, with IL3; experiment: BaF3 Flt3ITD/ITD proliferation in the presence of IL3 (Supplementary Figure 3A); conditions: replicates
# [2] = test system: BaF3 cells expressing FLT3ITD-D835Y; experiment: BaF3 proliferation, colorimetric WST-1 assay
# [3] = test system: BaF3 cells expressing FLT3ITD; experiment: BaF3 proliferation, colorimetric WST-1 assay; type: cell-based, murine
compound,measurement,setting,value
CO[C@@H]1[C@H](N(C)C(=O)c2ccccc2)C[C@H]2O[C@]1(C)n1c3ccccc3c3c4c(c5c6ccccc6n2c5c31)C(=O)NC4 [Midostaurin],Supplementary Figure 3A - BaF3-ITD+IL3 proliferation,[1]; concentration 0.08 (unit not given),107.388
same,Supplementary Figure 3A - BaF3-ITD+IL3 proliferation,"[1]; concentration 250 (unit not given), listed as Midostuarin",104.916
same,"proliferation, colorimetric assay","[2]; BaF3/FLT3 ITD-D835Y, concentration 0.08 (unit not given), 48 hours, replicates, listed as Midostuarin",105.403
same,IC50,"[2]; Mus musculus, BaF3, read-out: IC50, growth inhibition",10.7 nM
same,"proliferation, colorimetric assay","[3]; BaF3/FLT3 ITD, concentration 0.016 (unit not given), 48 hours, replicates, listed as Midostuarin",105.017
same,IC50,"[3]; Mus musculus, BaF3 FLT3ITD, read-out: IC50, growth inhibition",9.63 nM
